Some results were stated once for a whole list of compounds, not compound by compound. At least one compound was matched to its structure with a doubt left.
Experiments:
Assay type in all cases: in vivo
Spodoptera littoralis = Spodoptera littoralis (Egyptian Cotton Leafworm) cotton leaf disc spray test; conditions: 200 ppm spray on cotton leaf discs, L1 larvae, mortality, feeding behavior, growth regulation 3 DAT
Plutella xylostella = Plutella xylostella (Diamond Back Moth) artificial diet MTP test; conditions: 200 ppm (concentration in well 18 ppm), L2 larvae, 6 days, larval mortality, growth regulation
Diabrotica balteata = Diabrotica balteata (Corn Root Worm) artificial diet MTP test; conditions: 200 ppm (concentration in well 18 ppm), L2 larvae, 5 days, larval mortality, growth regulation
Thrips tabaci = Thrips tabaci (Onion Thrips) sunflower leaf disc spray test; conditions: 200 ppm spray on sunflower leaf discs, population of mixed ages, 7 days; mortality
Heliothis virescens = Heliothis virescens (Tobacco Budworm) egg test on artificial diet; conditions: 200 ppm (concentration in well 18 ppm), eggs 0-24 h old on artificial diet, 4 days; egg mortality, larval mortality, growth regulation
Tetranychus urticae = Tetranychus urticae (Two-Spotted Spider Mite) bean leaf disc spray test; conditions: 200 ppm spray on bean leaf discs, mite populations of mixed ages, 8 days; egg, larval and adult mortality
Myzus persicae = Myzus persicae (Green Peach Aphid) sunflower leaf disc spray test; conditions: 200 ppm spray on sunflower leaf discs, aphid population of mixed ages, 6 DAT; mortality

CCc1cc(C(F)(C(F)(F)F)C(F)(F)C(F)(F)F)cc(C)c1NC(=O)c1cccc(NC(=O)c2cncc(Br)c2)c1OC (stereo not drawn) [A11]
at least 80%: control of Spodoptera littoralis (Spodoptera littoralis) | control of Plutella xylostella (Plutella xylostella) | control of Diabrotica balteata (Diabrotica balteata) | control of Thrips tabaci (Thrips tabaci) | control of Heliothis virescens (Heliothis virescens) | control of Tetranychus urticae (Tetranychus urticae) | control of Myzus persicae (Myzus persicae)

CCc1cc(C(F)(C(F)(F)F)C(F)(F)C(F)(F)F)cc(C)c1NC(=O)c1cccc(NC(=O)c2ccccc2Br)c1OC (stereo not drawn) [A13]
at least 80%: control of Spodoptera littoralis (Spodoptera littoralis) | control of Plutella xylostella (Plutella xylostella) | control of Diabrotica balteata (Diabrotica balteata) | control of Thrips tabaci (Thrips tabaci) | control of Heliothis virescens (Heliothis virescens) | control of Myzus persicae (Myzus persicae)

COc1c(NC(=O)c2ccccc2)cccc1C(=O)Nc1c(Cl)cc(C(F)(C(F)(F)F)C(F)(F)C(F)(F)F)cc1Br (stereo not drawn) [B18]
at least 80%: control of Spodoptera littoralis (Spodoptera littoralis) | control of Plutella xylostella (Plutella xylostella) | control of Diabrotica balteata (Diabrotica balteata) | control of Heliothis virescens (Heliothis virescens) | control of Myzus persicae (Myzus persicae)

COc1c(NC(=O)c2ccc[n+]([O-])c2)cccc1C(=O)Nc1c(Cl)cc(C(F)(C(F)(F)F)C(F)(F)C(F)(F)F)cc1Br (stereo not drawn) [B55]
at least 80%: control of Spodoptera littoralis (Spodoptera littoralis) | control of Plutella xylostella (Plutella xylostella) | control of Diabrotica balteata (Diabrotica balteata) | control of Thrips tabaci (Thrips tabaci) | control of Heliothis virescens (Heliothis virescens) | control of Tetranychus urticae (Tetranychus urticae) | control of Myzus persicae (Myzus persicae)

COCCOc1ccc(C(=O)Nc2cccc(C(=O)Nc3c(Cl)cc(C(F)(C(F)(F)F)C(F)(F)C(F)(F)F)cc3Br)c2OC)c(Cl)c1Cl (stereo not drawn) [B106]
at least 80%: control of Tetranychus urticae (Tetranychus urticae) | control of Myzus persicae (Myzus persicae)

COCc1nc(C(F)F)ccc1C(=O)Nc1cccc(C(=O)Nc2c(Cl)cc(C(F)(C(F)(F)F)C(F)(F)C(F)(F)F)cc2Br)c1OC (stereo not drawn) [B150]
at least 80%: control of Spodoptera littoralis (Spodoptera littoralis) | control of Plutella xylostella (Plutella xylostella) | control of Diabrotica balteata (Diabrotica balteata) | control of Thrips tabaci (Thrips tabaci) | control of Heliothis virescens (Heliothis virescens) | control of Tetranychus urticae (Tetranychus urticae) | control of Myzus persicae (Myzus persicae)

COc1c(NC(=O)c2cnccc2C#N)cccc1C(=O)Nc1c(Cl)cc(C(F)(C(F)(F)F)C(F)(F)C(F)(F)F)cc1Br (stereo not drawn) [B204]
at least 80%: control of Spodoptera littoralis (Spodoptera littoralis) | control of Plutella xylostella (Plutella xylostella) | control of Diabrotica balteata (Diabrotica balteata) | control of Thrips tabaci (Thrips tabaci) | control of Heliothis virescens (Heliothis virescens) | control of Tetranychus urticae (Tetranychus urticae) | control of Myzus persicae (Myzus persicae)

COc1c(C(=O)Nc2c(Cl)cc(C(F)(C(F)(F)F)C(F)(F)C(F)(F)F)cc2Cl)cccc1N(C)C(=O)c1ccccc1 (stereo not drawn) [D1]
at least 80%: control of Spodoptera littoralis (Spodoptera littoralis) | control of Plutella xylostella (Plutella xylostella) | control of Diabrotica balteata (Diabrotica balteata) | control of Thrips tabaci (Thrips tabaci) | control of Heliothis virescens (Heliothis virescens) | control of Myzus persicae (Myzus persicae)

COc1c(C(=O)Nc2c(Cl)cc(C(F)(C(F)(F)F)C(F)(F)C(F)(F)F)cc2Cl)cccc1N(C)C(=O)c1ccc(C#N)cc1 (stereo not drawn) [D3]
at least 80%: control of Spodoptera littoralis (Spodoptera littoralis) | control of Plutella xylostella (Plutella xylostella) | control of Diabrotica balteata (Diabrotica balteata) | control of Thrips tabaci (Thrips tabaci) | control of Heliothis virescens (Heliothis virescens) | control of Tetranychus urticae (Tetranychus urticae) | control of Myzus persicae (Myzus persicae)

CCN(C(=O)c1ccc(C#N)cc1)c1cccc(C(=O)Nc2c(Cl)cc(C(F)(C(F)(F)F)C(F)(F)C(F)(F)F)cc2Cl)c1OC (stereo not drawn) [D4]
at least 80%: control of Spodoptera littoralis (Spodoptera littoralis) | control of Plutella xylostella (Plutella xylostella) | control of Diabrotica balteata (Diabrotica balteata) | control of Thrips tabaci (Thrips tabaci) | control of Heliothis virescens (Heliothis virescens) | control of Tetranychus urticae (Tetranychus urticae) | control of Myzus persicae (Myzus persicae)

COc1c(C(=O)Nc2c(Cl)cc(C(F)(C(F)(F)F)C(F)(F)C(F)(F)F)cc2Cl)cccc1N(C)C(=O)c1ccc(F)cc1 (stereo not drawn) [D20]
at least 80%: control of Spodoptera littoralis (Spodoptera littoralis) | control of Plutella xylostella (Plutella xylostella) | control of Diabrotica balteata (Diabrotica balteata) | control of Thrips tabaci (Thrips tabaci) | control of Heliothis virescens (Heliothis virescens) | control of Tetranychus urticae (Tetranychus urticae) | control of Myzus persicae (Myzus persicae)

CCN(C(=O)c1ccc(F)cc1)c1cccc(C(=O)Nc2c(Cl)cc(C(F)(C(F)(F)F)C(F)(F)C(F)(F)F)cc2Cl)c1OC (stereo not drawn) [D39]
at least 80%: control of Spodoptera littoralis (Spodoptera littoralis) | control of Plutella xylostella (Plutella xylostella) | control of Diabrotica balteata (Diabrotica balteata) | control of Heliothis virescens (Heliothis virescens) | control of Tetranychus urticae (Tetranychus urticae) | control of Myzus persicae (Myzus persicae)

CCN(C(=O)c1ccc(C#N)cc1Cl)c1cccc(C(=O)Nc2c(Cl)cc(C(F)(C(F)(F)F)C(F)(F)C(F)(F)F)cc2Cl)c1OC (stereo not drawn) [D45]
at least 80%: control of Spodoptera littoralis (Spodoptera littoralis) | control of Plutella xylostella (Plutella xylostella) | control of Diabrotica balteata (Diabrotica balteata) | control of Thrips tabaci (Thrips tabaci) | control of Heliothis virescens (Heliothis virescens) | control of Tetranychus urticae (Tetranychus urticae) | control of Myzus persicae (Myzus persicae)

COc1c(C(=O)Nc2c(Cl)cc(C(F)(C(F)(F)F)C(F)(F)C(F)(F)F)cc2Cl)cccc1N(C)C(=O)c1c(F)cccc1F (stereo not drawn) [D48]
at least 80%: control of Spodoptera littoralis (Spodoptera littoralis) | control of Plutella xylostella (Plutella xylostella) | control of Diabrotica balteata (Diabrotica balteata) | control of Thrips tabaci (Thrips tabaci) | control of Heliothis virescens (Heliothis virescens) | control of Tetranychus urticae (Tetranychus urticae) | control of Myzus persicae (Myzus persicae)

CCN(C(=O)c1c(F)cccc1F)c1cccc(C(=O)Nc2c(Cl)cc(C(F)(C(F)(F)F)C(F)(F)C(F)(F)F)cc2Cl)c1OC (stereo not drawn) [D49]
at least 80%: control of Spodoptera littoralis (Spodoptera littoralis) | control of Plutella xylostella (Plutella xylostella) | control of Diabrotica balteata (Diabrotica balteata) | control of Thrips tabaci (Thrips tabaci) | control of Heliothis virescens (Heliothis virescens) | control of Tetranychus urticae (Tetranychus urticae) | control of Myzus persicae (Myzus persicae)

COc1c(NC(=O)c2ccc(F)c(C(F)(F)F)c2)cccc1C(=O)Nc1c(Cl)cc(C(F)(C(F)(F)F)C(F)(F)F)cc1Cl [E12]
at least 80%: control of Spodoptera littoralis (Spodoptera littoralis) | control of Plutella xylostella (Plutella xylostella) | control of Thrips tabaci (Thrips tabaci) | control of Heliothis virescens (Heliothis virescens) | control of Tetranychus urticae (Tetranychus urticae) | control of Myzus persicae (Myzus persicae)

COc1c(NC(=O)c2ccc(C#N)cc2C)cccc1C(=O)Nc1c(Cl)cc(C(F)(C(F)(F)F)C(F)(F)F)cc1Cl [E25]
at least 80%: control of Spodoptera littoralis (Spodoptera littoralis) | control of Plutella xylostella (Plutella xylostella) | control of Diabrotica balteata (Diabrotica balteata) | control of Thrips tabaci (Thrips tabaci) | control of Heliothis virescens (Heliothis virescens) | control of Tetranychus urticae (Tetranychus urticae) | control of Myzus persicae (Myzus persicae)

Reference: patent US20120295907A1, “INSECTICIDAL COMPOUNDS” (SYNGENTA CROP PROTECTION, LLC, priority 2009, published 2012)
